In US12600714B2, “Substituted pyrazinecarboxamide compounds for treating diseases related to EGFR mutation” (WIGEN BIOMEDICINE TECHNOLOGY (SHANGHAI) CO., LTD., priority 2020, dated 2026):
At least one structure is not confirmed: it was looked up by name or label, or the drawing left a doubt.

The molecules below were run on EGFR (del19/T790M/C797S) (assay: HTRF inhibitory activity assay against EGFR (del19/T790M/C797S) enzyme).
Format: biochemical
Description: Inhibitory Activity Assay of the Compounds Disclosed Herein Against EGFR (del19/T790M/C797S), EGFR (L858R/T790M/C797S) or EGFR (WT) Enzymes
The inhibitory effects of the compounds against EGFR (del19/T790M/C797S), EGFR (L858R/T790M/C797S) or EGFR (WT) enzyme activity was determined by using HTRF. The procedures are as follows:
The WT or mutant EGFR proteins were incubated with a serially diluted compounds at 28° C. for 10 min followed by addition of biotin-labeled general tyrosine kinase (TK) substrate and ATP. The mixture was incubated at room temperature for 40 min for reaction. After the termination of the reaction, an Eu3+-Cryptate-labeled antibody against TK and streptavidin-XL665 were added and the mixture was incubated at room temperature for 60 min. The luminescences at 615 nm and 665 nm were detected and the ratio of 665/615 was calculated to quantify the level of TK substrate phosphorylation. Inhibition % and IC50 of the compounds were calculated relative to the control group.

| Structure (SMILES) | EGFR (del19/T790M/C797S) inhibition (%) (0.3 nM compound) |
| --- | --- |
| CCc1nc(C(N)=O)c(Nc2ccc(N3CCC(N4CCN(C)CC4)CC3)c(OC)c2)nc1NC1CCOCC1 [Gilteritinib, gilteritinib, reference compound] | + (+ indicates an inhibition less than or equal to 20%) |
| CN1CCN(C2CCN(c3ccc(Nc4nc(NC5CCOCC5)c(-c5ccccn5)nc4C(N)=O)cc3)CC2)CC1 [compound 38] | ++ (++ indicates an inhibition from 20% to 50%) |
| CN1CCN(C2CCN(c3ccc(Nc4nc(NC5CCCC5)c(-c5ccnc6[nH]ccc56)nc4C(N)=O)cc3F)CC2)CC1 [compound 533] | +++ (+++ indicates an inhibition greater than 50%.) |
